Assay results taken from PMC6281649.
No constants are given. Whether binding was seen depends on the method and setting. In cells and extracts the contact can be indirect. Some entries that bind do so weakly or less than the wild type.

The chains behind the UniProt entries cited, without tags or fusion partners. Residues count along the entry.
UniProt P35968, residues 20-1356: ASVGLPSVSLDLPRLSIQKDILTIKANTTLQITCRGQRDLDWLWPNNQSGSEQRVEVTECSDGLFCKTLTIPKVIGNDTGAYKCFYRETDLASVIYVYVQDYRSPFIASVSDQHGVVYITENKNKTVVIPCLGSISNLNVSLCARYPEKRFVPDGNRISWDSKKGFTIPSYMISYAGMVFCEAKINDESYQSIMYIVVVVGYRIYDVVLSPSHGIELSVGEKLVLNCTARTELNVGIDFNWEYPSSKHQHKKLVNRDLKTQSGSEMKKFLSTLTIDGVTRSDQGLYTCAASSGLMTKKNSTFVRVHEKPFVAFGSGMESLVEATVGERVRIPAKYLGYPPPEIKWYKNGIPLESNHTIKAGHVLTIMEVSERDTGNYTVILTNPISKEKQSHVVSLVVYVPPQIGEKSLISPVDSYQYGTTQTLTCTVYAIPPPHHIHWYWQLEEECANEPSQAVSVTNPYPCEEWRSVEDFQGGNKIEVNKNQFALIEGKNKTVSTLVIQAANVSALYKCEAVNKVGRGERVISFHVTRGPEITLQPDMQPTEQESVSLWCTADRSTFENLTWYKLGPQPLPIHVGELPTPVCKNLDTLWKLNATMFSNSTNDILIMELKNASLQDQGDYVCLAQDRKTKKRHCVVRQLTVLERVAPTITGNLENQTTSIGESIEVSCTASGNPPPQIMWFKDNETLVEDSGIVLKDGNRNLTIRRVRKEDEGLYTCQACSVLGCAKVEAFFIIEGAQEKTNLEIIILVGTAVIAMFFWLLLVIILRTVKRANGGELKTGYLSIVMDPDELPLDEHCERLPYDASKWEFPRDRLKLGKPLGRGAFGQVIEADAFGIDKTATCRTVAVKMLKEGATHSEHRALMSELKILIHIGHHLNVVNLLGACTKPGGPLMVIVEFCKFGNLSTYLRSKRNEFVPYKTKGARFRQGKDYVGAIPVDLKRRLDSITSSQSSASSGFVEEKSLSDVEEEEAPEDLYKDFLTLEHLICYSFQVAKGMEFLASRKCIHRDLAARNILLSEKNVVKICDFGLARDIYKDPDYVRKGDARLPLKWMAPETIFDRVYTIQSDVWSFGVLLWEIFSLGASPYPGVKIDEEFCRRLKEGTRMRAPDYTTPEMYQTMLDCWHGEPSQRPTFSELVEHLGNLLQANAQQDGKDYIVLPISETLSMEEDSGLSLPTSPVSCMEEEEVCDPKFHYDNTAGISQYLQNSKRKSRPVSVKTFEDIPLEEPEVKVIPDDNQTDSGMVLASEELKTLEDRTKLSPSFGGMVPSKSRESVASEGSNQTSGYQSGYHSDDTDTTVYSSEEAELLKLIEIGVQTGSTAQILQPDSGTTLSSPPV
UniProt P35916, residues 25-1363: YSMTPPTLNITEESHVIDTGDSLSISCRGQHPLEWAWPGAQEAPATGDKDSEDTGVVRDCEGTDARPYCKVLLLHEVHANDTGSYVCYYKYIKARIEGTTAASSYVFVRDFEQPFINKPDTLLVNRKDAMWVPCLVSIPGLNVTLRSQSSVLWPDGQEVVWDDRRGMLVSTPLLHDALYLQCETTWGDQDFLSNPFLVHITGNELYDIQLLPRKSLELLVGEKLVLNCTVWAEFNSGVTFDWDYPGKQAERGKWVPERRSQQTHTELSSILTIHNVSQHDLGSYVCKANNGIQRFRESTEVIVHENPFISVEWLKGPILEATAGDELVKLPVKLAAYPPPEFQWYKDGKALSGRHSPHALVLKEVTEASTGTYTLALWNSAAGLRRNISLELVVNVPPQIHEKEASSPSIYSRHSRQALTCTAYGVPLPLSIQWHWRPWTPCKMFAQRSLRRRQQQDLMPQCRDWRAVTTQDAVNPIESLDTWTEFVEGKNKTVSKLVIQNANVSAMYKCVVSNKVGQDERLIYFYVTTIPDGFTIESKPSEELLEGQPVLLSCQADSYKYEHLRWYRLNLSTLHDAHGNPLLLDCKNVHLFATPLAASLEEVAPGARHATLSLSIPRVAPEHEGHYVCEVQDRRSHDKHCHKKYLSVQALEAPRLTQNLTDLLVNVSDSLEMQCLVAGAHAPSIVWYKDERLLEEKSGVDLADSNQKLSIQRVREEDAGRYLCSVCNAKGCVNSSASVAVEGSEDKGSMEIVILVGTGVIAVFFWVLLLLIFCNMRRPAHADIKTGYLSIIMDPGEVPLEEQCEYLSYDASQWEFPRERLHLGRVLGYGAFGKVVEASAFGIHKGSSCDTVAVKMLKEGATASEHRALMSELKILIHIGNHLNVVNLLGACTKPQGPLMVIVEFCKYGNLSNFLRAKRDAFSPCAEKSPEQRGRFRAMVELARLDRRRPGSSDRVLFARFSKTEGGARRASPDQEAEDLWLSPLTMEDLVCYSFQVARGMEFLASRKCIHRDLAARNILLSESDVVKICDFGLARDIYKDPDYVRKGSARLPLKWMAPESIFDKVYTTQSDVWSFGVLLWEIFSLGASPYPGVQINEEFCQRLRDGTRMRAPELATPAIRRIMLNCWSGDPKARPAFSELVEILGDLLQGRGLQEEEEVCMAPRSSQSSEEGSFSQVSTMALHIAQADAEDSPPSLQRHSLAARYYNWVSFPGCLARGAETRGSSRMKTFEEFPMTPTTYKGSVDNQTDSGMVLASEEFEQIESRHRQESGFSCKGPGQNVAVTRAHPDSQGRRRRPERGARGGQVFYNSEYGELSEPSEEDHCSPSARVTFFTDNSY

Key:
[1] = biological target: T1, urokinase plasminogen activator receptor-associated protein, uPARAP/Endo180 (human (endogenous in primary human LECs)) (UniProt Q9UBG0); assay: proximity ligation; in situ PLA (Duolink) in fixed, permeabilised primary human LECs; basal, 5 and 30 min of VEGF-C (400 ng/ml), or migrating 6 h in a VEGF-C gradient; control siRNA, uPARAP siRNA or uPARAP cDNA; dots per cell
T1 sequence: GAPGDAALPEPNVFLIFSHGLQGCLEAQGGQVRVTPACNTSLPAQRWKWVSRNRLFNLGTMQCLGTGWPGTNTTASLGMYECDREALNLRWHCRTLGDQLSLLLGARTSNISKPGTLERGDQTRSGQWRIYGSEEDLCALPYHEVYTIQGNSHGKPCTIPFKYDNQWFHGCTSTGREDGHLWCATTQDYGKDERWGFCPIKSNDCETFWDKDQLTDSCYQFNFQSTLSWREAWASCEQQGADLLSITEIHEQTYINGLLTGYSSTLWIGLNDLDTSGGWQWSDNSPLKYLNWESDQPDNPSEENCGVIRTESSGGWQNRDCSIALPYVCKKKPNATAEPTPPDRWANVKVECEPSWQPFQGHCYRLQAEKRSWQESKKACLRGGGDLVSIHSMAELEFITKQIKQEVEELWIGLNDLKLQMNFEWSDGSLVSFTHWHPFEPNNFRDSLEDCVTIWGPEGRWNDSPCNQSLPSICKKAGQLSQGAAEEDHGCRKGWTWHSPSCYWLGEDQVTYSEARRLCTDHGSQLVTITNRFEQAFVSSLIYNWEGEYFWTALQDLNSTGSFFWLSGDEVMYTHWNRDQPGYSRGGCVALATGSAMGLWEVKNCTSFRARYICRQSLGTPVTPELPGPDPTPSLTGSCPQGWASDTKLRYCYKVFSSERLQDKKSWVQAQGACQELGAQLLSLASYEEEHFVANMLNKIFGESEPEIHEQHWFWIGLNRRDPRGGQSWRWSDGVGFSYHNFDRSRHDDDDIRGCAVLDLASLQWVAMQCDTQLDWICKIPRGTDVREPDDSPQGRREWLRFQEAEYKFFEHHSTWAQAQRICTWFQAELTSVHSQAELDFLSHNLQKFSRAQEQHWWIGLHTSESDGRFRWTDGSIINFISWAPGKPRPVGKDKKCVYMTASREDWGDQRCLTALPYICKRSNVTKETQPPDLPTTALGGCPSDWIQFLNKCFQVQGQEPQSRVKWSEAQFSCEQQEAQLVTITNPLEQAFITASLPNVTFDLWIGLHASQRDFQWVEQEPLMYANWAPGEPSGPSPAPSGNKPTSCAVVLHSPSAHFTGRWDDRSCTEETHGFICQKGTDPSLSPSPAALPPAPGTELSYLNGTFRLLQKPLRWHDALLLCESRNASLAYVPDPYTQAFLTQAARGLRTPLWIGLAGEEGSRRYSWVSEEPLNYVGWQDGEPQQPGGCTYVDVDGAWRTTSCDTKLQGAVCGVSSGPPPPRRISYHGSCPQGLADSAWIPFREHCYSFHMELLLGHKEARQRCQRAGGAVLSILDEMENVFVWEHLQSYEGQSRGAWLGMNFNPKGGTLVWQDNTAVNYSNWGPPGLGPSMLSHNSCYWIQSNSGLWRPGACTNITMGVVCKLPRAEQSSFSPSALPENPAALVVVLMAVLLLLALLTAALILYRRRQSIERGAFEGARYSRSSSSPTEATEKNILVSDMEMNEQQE

[2] = biological target: T1, urokinase plasminogen activator receptor-associated protein, uPARAP/Endo180 (human (endogenous in primary human LECs)); assay: co-IP; immunoprecipitation of uPARAP (mAb 2H9F12, overnight at 4 degrees, Dynabeads Protein G) from LEC lysate in Cell Lysis Buffer at the indicated times of VEGF-C stimulation; blots for VEGFR-2 and VEGFR-3; IgG as negative control

binding [1] | binding [2] | Substance
binds | binds | VEGFR-2 (from UniProt P35968 20-1356) (receptor)
binds | binds | VEGFR-3 (from UniProt P35916 25-1363) (receptor)
